No constants are given. Whether binding was seen depends on the method and setting. Binding seen in cells or lysates may run through a third protein. A result given as binding can be weak or reduced; the word gives no strength. Sequences can lack the tags named with a protein.
Target: T1, oxysterol-binding protein-related protein 4 (ORP4), flag-tagged (UniProt Q969R2)
T1 sequence: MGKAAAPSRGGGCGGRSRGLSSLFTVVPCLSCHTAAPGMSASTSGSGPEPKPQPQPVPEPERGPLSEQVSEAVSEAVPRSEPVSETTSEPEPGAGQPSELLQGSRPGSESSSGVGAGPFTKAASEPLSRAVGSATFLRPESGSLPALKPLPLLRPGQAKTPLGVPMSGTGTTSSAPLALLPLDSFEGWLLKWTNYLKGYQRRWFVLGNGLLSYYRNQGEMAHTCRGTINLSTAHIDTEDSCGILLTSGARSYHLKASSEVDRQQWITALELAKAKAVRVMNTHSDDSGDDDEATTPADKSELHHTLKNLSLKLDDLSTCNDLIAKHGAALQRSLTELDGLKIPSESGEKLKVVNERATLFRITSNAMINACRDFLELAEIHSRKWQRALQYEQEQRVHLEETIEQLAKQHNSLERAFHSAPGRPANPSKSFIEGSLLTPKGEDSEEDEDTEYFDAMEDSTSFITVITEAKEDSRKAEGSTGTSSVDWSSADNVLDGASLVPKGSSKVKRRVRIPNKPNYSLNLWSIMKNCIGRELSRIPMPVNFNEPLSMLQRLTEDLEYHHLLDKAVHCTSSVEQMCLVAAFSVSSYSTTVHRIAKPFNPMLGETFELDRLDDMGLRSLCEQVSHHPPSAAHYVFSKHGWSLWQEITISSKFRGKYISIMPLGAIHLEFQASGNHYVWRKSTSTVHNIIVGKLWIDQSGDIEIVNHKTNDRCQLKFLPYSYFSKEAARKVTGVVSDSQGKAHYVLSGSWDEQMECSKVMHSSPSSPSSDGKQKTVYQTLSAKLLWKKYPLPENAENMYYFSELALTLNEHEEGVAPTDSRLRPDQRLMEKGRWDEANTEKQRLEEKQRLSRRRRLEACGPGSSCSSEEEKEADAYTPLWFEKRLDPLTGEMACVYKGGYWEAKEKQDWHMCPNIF
Assay: co-IP; 293T cells transfected with flag-ORP4 plus myc-NS5B and/or HA-hVAP-A; lysates prepared 48 hr post transfection; immunoprecipitated with anti-flag antibody; Western blot with anti-myc or anti-HA antibody

HCV NS5B (RNA-dependent RNA polymerase), myc-tagged (hepatitis C virus (strain not stated)) (enzyme)
binding: binds
